## Primary screen of a compound library

Sequences of proteins named here, by UniProt entry; tags and fusion partners are left off. Residues count along the entry.
UniProt A4I591, 1-473: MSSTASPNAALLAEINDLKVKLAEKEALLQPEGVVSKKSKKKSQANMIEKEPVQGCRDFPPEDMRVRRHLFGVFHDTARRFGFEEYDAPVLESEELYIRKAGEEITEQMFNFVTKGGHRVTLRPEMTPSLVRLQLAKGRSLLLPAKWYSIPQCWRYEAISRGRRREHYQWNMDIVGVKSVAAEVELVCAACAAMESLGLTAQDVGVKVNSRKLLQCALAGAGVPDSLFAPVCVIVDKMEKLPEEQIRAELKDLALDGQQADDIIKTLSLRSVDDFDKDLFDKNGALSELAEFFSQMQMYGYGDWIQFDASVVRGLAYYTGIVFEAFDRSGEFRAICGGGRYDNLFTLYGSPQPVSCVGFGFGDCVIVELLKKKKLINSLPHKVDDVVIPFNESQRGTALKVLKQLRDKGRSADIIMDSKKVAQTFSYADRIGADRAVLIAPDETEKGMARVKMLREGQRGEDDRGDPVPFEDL

A: 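Enzyme assay of histidyl-tRNA synthetase; the read-out is not stated. Target: Histidine-tRNA ligase, Leishmania infantum (UniProt A4I591). Concentration: 30 µM. Direction is inferred from retests: higher values go with stronger inhibition. The assay is labelled LdHisRS but filed under L. infantum. About 69,000 compounds were tested under these conditions; 0.6% (about 410) showed 50% or more at least once.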
B: 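Assay of Toxoplasma gondii numbers, read through their beta-galactosidase reporter with a colour substrate. Concentration: 10 µM. Higher reads as fewer parasites (inferred from which compounds were picked for retests). Of about 67,000 compounds tested this way, about 260 (0.38%) reached 50% or more in at least one test.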

The filed quantity is “Percent Effect” (%).
The controls that fix the scale are not given in the record; negative values are as filed.
The compounds are a random part of those screened.
A dash means the value is not listed here; it may have been measured.

| # | Compound | A | B |
|---|---|---|---|
| 1 | `N#CC1(C(=O)N2C[C@H](Nc3ncccn3)[C@@H](C3CC3)C2)CCOCC1` | 8.046% | 3.04% |
| 2 | `CCn1ncnc1CN(C/C=C/c1ccccc1)CCOC` | 8.571% | 5.407% |
| 3 | `CCOC(=O)CC(C)Nc1nc(C2CCCC2)nc2c1cnn2C` (centres unmarked) | -4.255% | 1.068% |
| 4 | `CC(=O)Nc1ncc(S(=O)(=O)Nc2ccccc2)s1` | 13.79% | 62.69% |
| 5 | `c1cc(CN2CCO[C@@H]3CNC[C@@H]32)co1` | 9.402% | - |
| 6 | `O=C(Nc1ccc2c(c1)OCO2)N1CCN(CCc2ccccc2)CC1` | 12.7% | -7.27% |
| 7 | `[H][C@]12CC[C@]([H])(CN(S(=O)(=O)c3cccnc3)C1)N(Cc1ccccn1)C2` | - | -58.27% |
| 8 | `CCc1nsc(N2CCCN(CC(=O)N(C)C3CC3)CC2)n1` | 8.85% | -17.61% |
| 9 | `Cc1c(Cl)c(C(=O)NC(C)CN2CCOCC2)nn1C` (centres unmarked) | 1.235% | -7.048% |
| 10 | `O=C1N(CCC2CCCCC2)CCCC1(O)CNCCc1ccccc1` (centres unmarked) | 23.2% | -22.63% |
| 11 | `Cc1ncsc1CN1C[C@@H]2CN(S(C)(=O)=O)CCO[C@@H]2C1` | 20% | - |
| 12 | `CNc1cc(C)nc(C2CN(Cc3cncs3)CCO2)c1` (centres unmarked) | 14% | -5.75% |
| 13 | `Cn1ncc2c1CN(Cc1ccccc1F)CC2COCC1CC1.O=C(O)C(F)(F)F.O=C(O)C(F)(F)F` (centres unmarked) | - | -15.46% |
| 14 | `NCc1cnn(-c2ccccc2C(=O)NCc2ccccn2)c1` | 18% | -32.68% |
| 15 | `CCOc1ccc(CN2CCC(c3ccn[nH]3)C2)cc1CO` (centres unmarked) | 8.696% | 8.552% |
| 16 | `COc1ccccc1NC(=O)CCNC(=O)c1ccoc1` | 20% | -9.166% |
| 17 | `COc1ccc(C)cc1CCNS(=O)(=O)c1ccc2c(c1)CCC(=O)N2` | 4.396% | 9.855% |
| 18 | `NCCO[C@H]1C[C@@H](O)C12CCN(C(=O)CCOc1ccccc1)CC2` | 11.48% | 9.249% |
| 19 | `CC(=O)NC[C@]1(O)CCN(C(=O)c2ccc3c(c2)CCC3)C[C@H]1O` | 1.449% | 4.797% |
| 20 | `CC(=O)Nc1nc2c(s1)C(C)(C)Nc1ccccc1S2` | 0% | 11.25% |
| 21 | `COC(=O)c1ccoc1CN(C)CC(=O)NC1CC1` | 24.71% | -0.6791% |
| 22 | `O=C(NCC1CC1)C1CCC2(CCN(C(=O)c3ccccn3)CC2)O1` (centres unmarked) | -2.439% | - |
| 23 | `O=C1CC2(CCN(Cc3ccncc3)C2)CN1c1ccc2c(c1)OCO2` (centres unmarked) | -9.091% | - |
| 24 | `CN(C)c1nccnc1N1CC[C@@]2(O)CCNC[C@H]2C1` | 20.41% | - |
| 25 | `CSc1ncc(C(=O)N(C)C(C)Cc2ccccn2)cn1` (centres unmarked) | 5.674% | -1.831% |
| 26 | `N#Cc1ccc(F)c(CSCCN2CCOCC2)c1` | 10.45% | 7.246% |
| 27 | `[H][C@]12CCCCN1CCC[C@H]2CCC(=O)N1CCC(c2nnc[nH]2)CC1` | - | 2.766% |
| 28 | `COCC1CCN(C(=O)c2cn(Cc3cccc(C(F)(F)F)c3)nn2)C1` (centres unmarked) | 5.128% | 1.627% |
| 29 | `COc1cccc(OCc2nnc3n2N=C(C(C)(C)C)CS3)c1` | 21.92% | -0.5299% |
| 30 | `O=C1[C@H]2CN(c3ncccn3)C[C@H]2CN1CC1CC1` | 22.22% | - |
| 31 | `Cn1cc(NC(=O)c2ccccn2)cc(Br)c1=O` | 15.38% | 14.1% |
| 32 | `CCc1ncc(C(=O)NCCN2CCNC2=O)cn1` | 17.65% | -5.603% |
| 33 | `Cc1cc(C[C@@H]2CCC[C@H]2NCc2ccccc2C)on1.O=C(O)CC(O)(CC(=O)O)C(=O)O` | - | 9.681% |
| 34 | `CC(C)CNC(=O)c1cccc(CN2CCc3c(ncn3C)C2)c1` | 16.51% | -28.68% |
| 35 | `CN1CCN(Cc2cccc(NCc3cc[nH]n3)c2)CC1` | 12.28% | -0.8403% |
| 36 | `Cc1occc1C(=O)N1CCC2(CCCN(Cc3nccs3)C2)C1` (centres unmarked) | 23.29% | - |
| 37 | `CCCn1nc(C)c2c1NC(=O)CC2c1ccc(CN2CCCC2)s1` (centres unmarked) | 13.98% | -4.553% |
| 38 | `COc1ccc(-c2nccnc2C2CCN(C(C)=O)CC2)cc1` | 16.67% | 8.392% |
| 39 | `Cc1ccc2cc(CNCCCN3CCOCC3)c(=O)[nH]c2c1` | 22.22% | -6.983% |
| 40 | `Cc1ncsc1-c1nnc(C2CCN(Cc3ccc(Cl)cc3)CC2)o1` | 27.54% | 5.947% |
| 41 | `CO[C@@]1(C)C[C@@H](O)C12CCN(C(=O)c1ccccc1C(C)=O)CC2` | 16.39% | 12.75% |
| 42 | `O=C(NCc1ccc(Cl)cc1Cl)NCC1(O)CCSC1` (centres unmarked) | 15.15% | -1.291% |
| 43 | `COCC[C@]1(O)CCN(C(=O)C2CCN(C3CCCC3)CC2)C[C@H]1C` | 4.918% | 11.59% |
| 44 | `COc1cc(CNC(=O)Nc2nnc(C3CC3)s2)ccc1O` | 11.11% | 19.04% |
| 45 | `O=S(=O)(CCN1CCN(c2ccccc2O)CC1)c1ccc(Cl)cc1` | 35.71% | -11.61% |
| 46 | `CNC(=O)[C@@H](c1ccccc1OC)N1CCC[C@H]1C(=O)N1CCC1` | 22.22% | - |
| 47 | `COCCn1cnc(-c2nc(C(=O)N3CCOCC3)c3ccccn23)c1` | 28.57% | -6.141% |
| 48 | `COC[C@H]1CC[C@@H]2[C@@H](CCN2Cc2ccccn2)O1` | 16% | - |
| 49 | `CCn1cc(-c2cc(-c3cc(CC(=O)O)cs3)nc(N)c2C#N)c(C)n1` | 19.35% | 0.6657% |
| 50 | `Cc1ccc(C)c(C(=O)NCC(c2cccn2C)N2CCCCCC2)c1` (centres unmarked) | 28.77% | 7.93% |
| 51 | `CN(C)C(=O)CN1CCN(c2cc(N3CCCC3CO)ncn2)CC1` (centres unmarked) | -3.109% | 2.18% |
| 52 | `CC(C)Nc1ncnc2c1CCN(C(=O)c1ccncc1F)CC2` | 13.53% | - |
| 53 | `CCn1ccnc1CN1CCOC(Cn2cccn2)C1` (centres unmarked) | 13.04% | 3.539% |
| 54 | `O=C(Cc1csc(Cc2ccccn2)n1)NCCCN1CCCC1=O` | -14.81% | 17.17% |
| 55 | `Cc1ccc(NC2CCN(C(=O)Cc3cccc(F)c3)CC2)nn1` | 9.524% | 2.125% |
| 56 | `COCCO[C@H]1CCN(Cc2cccnc2)[C@H]1Cc1cccnc1.O=C(O)C(F)(F)F.O=C(O)C(F)(F)F.O=C(O)C(F)(F)F` | - | 9.877% |
| 57 | `Cc1ccc(C2COCCN2C(=O)c2ccc(CN(C)C)cc2)o1` (centres unmarked) | 0.9709% | -3.965% |
| 58 | `O=C(O)C(F)(F)F.O=C(O)C(F)(F)F.[H][C@@]12CCN(Cc3nccs3)C[C@]1([H])O[C@@H](C(=O)Nc1cccnc1C)C2` | - | -2.528% |
| 59 | `O=C(NCCNCC1CNc2ccnn2C1)c1ccc(F)cc1` (centres unmarked) | 15.38% | 20.2% |
| 60 | `COCCNc1nc(-c2ccc(S(=O)(=O)N3CCCCCC3)cc2)cs1` | 2.632% | 14.97% |
| 61 | `Cc1ncsc1CCN(C)Cc1ccc(CO)o1` | 11.9% | -0.304% |
| 62 | `COCCc1nnc(NC(=O)CSCc2ccccc2)o1` | 25.97% | -12.25% |
| 63 | `O=C(c1ccnnc1)N1C[C@H](OCc2ccccn2)[C@H]2COC[C@H]21` | 7.273% | - |
| 64 | `CCOc1ccccc1OCCN(C)Cc1ncnn1CC` | 2.083% | -37.84% |
| 65 | `NC(=O)CCNC(=O)Cc1cccc(I)c1` | 0.8772% | -1.872% |
| 66 | `O=C(C1CCCC1)N1CCOc2cccc(F)c21` | 8.219% | 1.438% |
| 67 | `[H][C@]12CC[C@]([H])(CN(Cc3ccncc3)C1)N(C(=O)C1CCOCC1)C2` | - | -4.433% |
| 68 | `CNC(=O)c1cccc(CNC(C)c2cc(Cl)ccc2OC)c1` (centres unmarked) | 1.709% | -7.505% |
| 69 | `CCc1ccc(CN2CC[C@H]3[C@H]2CC(=O)N3Cc2cccc(C)n2)o1` | 17.43% | - |
| 70 | `COCc1cc(O)nc(C2CCCN(Cc3ccc(F)cc3)C2)n1` (centres unmarked) | 7.246% | -8.704% |
| 71 | `CCc1ncc2c(n1)CN(Cc1nc(-c3ccccn3)no1)CC2` | 22.73% | -1.067% |
| 72 | `c1cnn(CC2CCCCN2Cc2nc(-c3ccoc3)no2)c1` (centres unmarked) | 8.621% | -7.944% |
| 73 | `CCOCCCNC(=O)N(C)Cc1ccc(SC)c(OC)c1` | 12.12% | -12.99% |
| 74 | `O=C(Cn1ccnc1)N1CCCC(OCc2cccnc2)C1` (centres unmarked) | 3.529% | 15.05% |
| 75 | `Cc1nc2c(c(N[C@@H](CO)C(N)=O)n1)Cc1ccccc1OC2` | 25.3% | -3.565% |
| 76 | `COCCCN(Cc1ccccn1)Cc1ccnn1C1CCCCO1.O=C(O)CC(O)(CC(=O)O)C(=O)O` (centres unmarked) | - | 4.155% |
| 77 | `COc1ccccc1OCc1nc2cc3c(cc2c(=O)o1)OCCCO3` | 7.843% | 1.908% |
| 78 | `Cc1cc(N2CCC(Cc3cccnc3)C2)ncn1` (centres unmarked) | 12.68% | - |

For reference, 8 entries once more:

| Compound | A | B |
|---|---|---|
| `CC(C)CNC(=O)c1cccc(CN2CCc3c(ncn3C)C2)c1` | 16.51% | -28.68% |
| `Cn1cc(NC(=O)c2ccccn2)cc(Br)c1=O` | 15.38% | 14.1% |
| `CCCn1nc(C)c2c1NC(=O)CC2c1ccc(CN2CCCC2)s1` (centres unmarked) | 13.98% | -4.553% |
| `CCOc1ccc(CN2CCC(c3ccn[nH]3)C2)cc1CO` (centres unmarked) | 8.696% | 8.552% |
| `N#CC1(C(=O)N2C[C@H](Nc3ncccn3)[C@@H](C3CC3)C2)CCOCC1` | 8.046% | 3.04% |
| `CCc1ccc(CN2CC[C@H]3[C@H]2CC(=O)N3Cc2cccc(C)n2)o1` | 17.43% | - |
| `O=C(c1ccnnc1)N1C[C@H](OCc2ccccn2)[C@H]2COC[C@H]21` | 7.273% | - |
| `O=C(Nc1ccc2c(c1)OCO2)N1CCN(CCc2ccccc2)CC1` | 12.7% | -7.27% |

From ChEMBL document CHEMBL3988442, “University of Dundee, Small-Polar-MMV Screening Library” (2021).